Results from PMC5112549.
Results are given in words; binding and its absence hold for the method and conditions named. Binding seen in cells or lysates may run through a third protein. Some entries that bind do so weakly or less than the wild type.

Sequences of proteins named here, by UniProt entry; tags and fusion partners are left off. Residues count along the entry.
UniProt Q9ULV1, residues 37-537: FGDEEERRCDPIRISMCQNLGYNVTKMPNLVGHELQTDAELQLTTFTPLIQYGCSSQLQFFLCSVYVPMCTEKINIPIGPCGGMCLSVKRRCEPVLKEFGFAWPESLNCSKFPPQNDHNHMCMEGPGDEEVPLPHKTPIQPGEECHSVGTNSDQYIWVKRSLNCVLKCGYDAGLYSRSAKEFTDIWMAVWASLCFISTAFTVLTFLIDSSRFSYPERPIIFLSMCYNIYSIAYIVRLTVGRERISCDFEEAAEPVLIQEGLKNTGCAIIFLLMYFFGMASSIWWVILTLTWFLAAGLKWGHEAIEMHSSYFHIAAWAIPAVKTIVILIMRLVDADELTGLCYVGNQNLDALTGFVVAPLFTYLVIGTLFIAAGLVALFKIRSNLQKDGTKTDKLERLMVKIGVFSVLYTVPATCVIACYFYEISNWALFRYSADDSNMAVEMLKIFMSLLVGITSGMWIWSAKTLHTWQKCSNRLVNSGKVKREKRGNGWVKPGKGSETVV
UniProt Q13467, residues 27-585: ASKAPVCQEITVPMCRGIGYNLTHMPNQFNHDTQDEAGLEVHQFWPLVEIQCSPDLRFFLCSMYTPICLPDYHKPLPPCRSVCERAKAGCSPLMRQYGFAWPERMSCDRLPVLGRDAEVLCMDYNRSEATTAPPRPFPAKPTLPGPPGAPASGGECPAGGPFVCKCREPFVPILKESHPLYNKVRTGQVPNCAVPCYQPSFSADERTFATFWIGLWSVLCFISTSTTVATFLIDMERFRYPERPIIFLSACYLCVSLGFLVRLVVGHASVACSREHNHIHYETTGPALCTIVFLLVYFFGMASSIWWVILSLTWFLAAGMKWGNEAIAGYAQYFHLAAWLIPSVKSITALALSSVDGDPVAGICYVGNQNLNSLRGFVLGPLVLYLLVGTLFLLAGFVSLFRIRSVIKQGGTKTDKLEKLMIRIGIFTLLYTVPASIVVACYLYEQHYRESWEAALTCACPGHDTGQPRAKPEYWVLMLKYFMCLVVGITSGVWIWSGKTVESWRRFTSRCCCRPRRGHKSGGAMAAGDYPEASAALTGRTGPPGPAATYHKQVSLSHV
UniProt O00744, residues 29-389: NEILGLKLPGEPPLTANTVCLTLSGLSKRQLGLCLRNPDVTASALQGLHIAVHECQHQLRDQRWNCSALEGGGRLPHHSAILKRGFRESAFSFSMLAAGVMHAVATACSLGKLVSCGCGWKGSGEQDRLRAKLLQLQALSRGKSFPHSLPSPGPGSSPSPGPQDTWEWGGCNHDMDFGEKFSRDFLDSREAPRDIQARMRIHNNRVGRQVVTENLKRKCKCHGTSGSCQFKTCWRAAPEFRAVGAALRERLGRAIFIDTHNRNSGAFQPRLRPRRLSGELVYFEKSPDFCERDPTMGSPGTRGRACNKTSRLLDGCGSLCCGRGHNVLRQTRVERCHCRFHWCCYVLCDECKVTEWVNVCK

Tests used:
[1] = target: FZD4 (human (endogenous in MCF-7)) (UniProt Q9ULV1); test: co-IP; MCF-7 cell lysate, 100 ug protein; immunoprecipitation with anti-FZD4, anti-FZD5 or anti-FZD6 antibodies on Protein G Sepharose, 4 °C; immunoblot
[2] = target: FZD5 (human (endogenous in MCF-7)) (UniProt Q13467); test: as above
[3] = target: FZD4 (human (endogenous in MCF-7)) (UniProt Q9ULV1); test: proximity ligation; in situ PLA on fixed, permeabilised MCF-7 cells (adherent and tumorsphere cultures); mouse anti-WNT10B and rabbit anti-FZD4/5/6 primary antibodies; also after treatment of the cells with IWP-2 (0, 3, 5, 7 uM), which lowered the signals dose-dependently
[4] = target: FZD5 (human (endogenous in MCF-7)) (UniProt Q13467); test: as above

binding [1]: binds | binding [2]: binds | binding [3]: binds | binding [4]: binds
Substance: WNT10B (from UniProt O00744 29-389) (ligand)
